# Results as given in the supplement of paper PMC3334620.
# In all, about 33,000 sequences were measured (“E-score (-0.5 to 0.5)”: median about -0.0014, highest 2% from about 0.25 on). This is one part of the list.
# Target: T1, Cad1 (UniProt P24813)
# T1 sequence: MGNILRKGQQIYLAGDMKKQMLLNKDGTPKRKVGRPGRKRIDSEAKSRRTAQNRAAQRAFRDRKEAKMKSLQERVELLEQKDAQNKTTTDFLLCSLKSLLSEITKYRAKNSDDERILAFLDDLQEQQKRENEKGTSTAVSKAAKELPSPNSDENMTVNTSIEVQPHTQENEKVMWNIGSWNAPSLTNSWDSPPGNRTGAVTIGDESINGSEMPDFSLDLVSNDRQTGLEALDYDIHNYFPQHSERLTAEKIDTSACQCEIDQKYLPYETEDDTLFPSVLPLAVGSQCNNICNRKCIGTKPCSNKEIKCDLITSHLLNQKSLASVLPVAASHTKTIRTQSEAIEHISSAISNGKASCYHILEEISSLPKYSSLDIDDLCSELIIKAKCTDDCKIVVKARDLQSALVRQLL
# Assay: PBM E-score (8-mer binding enrichment) (E-score (-0.5 to 0.5)); higher = stronger / more preferred TF binding
# Conditions: protein concentration: 100 nM; construct: GST-full length
# Procedure, shortened: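 Each ungapped eight-base word and its reverse complement, pooled, received an E-score from the Universal PBM Analysis Suite. Underlying scans, normalised with masliner, recorded fluorescent anti-GST bound to GST-tagged yeast transcription factors. These were applied at about 100-200 nM to universal all-10-mer Agilent arrays double-stranded by primer extension.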
row,Sequence,PBM E-score
1,CGAAGGAC,-0.083
2,TGGACAAA,0.178
3,CCGTTTCG,0.143
4,CGCACCGA,-0.0919
5,ACAGTTCG,0.142
6,AATTCGAC,-0.207
7,CGTTGCAC,0.04
8,GATATCAC,0.086
9,CCACTGAC,-0.168
10,CGCGTGTA,0.0728
11,CGATTTTC,0.158
12,ACGCGTCG,0.246
13,AGATCTGA,0.0298
14,CCTAGTCC,-0.231
15,TCTGTACA,0.111
16,GTCGCTCA,-0.074
17,AAGGCGGG,-0.17
18,CTCAGCCC,-0.21
19,AGCTACGA,-0.0329
20,CATTCTCC,-0.0219
21,TCCTTCAA,-0.00792
22,ACGATGTG,0.058
23,TCCATCCA,-0.0893
24,CTCCACCC,-0.217
25,TGTGAAAA,0.103

row,Sequence,PBM E-score
1,ACATATAG,-0.0418
2,AAGGAACT,-0.0734
3,CGAATTGA,0.0375
4,GATTGCAC,0.05
5,AAGATGGT,-0.107
6,ACAGGACT,-0.0713
7,GATCAGGA,-0.015
8,GATAGATA,-0.0537
9,ACGTAAAG,0.0971
10,AAACGACA,0.0852
11,AGTATTGA,0.0931
12,CCTCTGCG,-0.147
13,ACTTTATA,-0.0756
14,ACATGTGA,-0.105
15,CTGTTGAC,0.0587
16,CAGGGTGG,-0.185
17,ATACAAGC,-0.0237
18,CGACTGGC,-0.0974
19,CACATATC,0.127
20,ATCTGAGA,-0.0755
21,GATGACCA,0.0747
22,ATTCTACC,-0.0584
23,CAAAATAA,0.177
24,AGATACGC,-0.0142
25,ACGTCCTC,-0.0293

row,Sequence,PBM E-score
1,ATGTTCGA,0.115
2,ATTGACTC,0.0149
3,GCTCGGTA,-0.203
4,AGCATAAC,0.035
5,TACGGATA,0.116
6,GTCAGGGA,-0.125
7,GGCAGACA,-0.169
8,GCCCCAAA,-0.0417
9,TCGCTTCA,0.0104
10,GCTTGAAA,0.0794
11,GCGCTTCC,-0.024
12,ATAACGTC,0.0313
13,ACCGCAAG,0.0347
14,CTTTGTCA,0.278
15,AGACTTCC,-0.038
16,GATCATAC,0.0317
17,AGGAATGG,-0.127
18,AATACACC,0.255
19,CGACCTAG,0.0727
20,GGCTTTCA,-0.0154
21,GTTTCACA,0.08
22,CGTTGGAG,-0.134
23,CCTAGAGC,-0.276
24,CACGCCTA,-0.213
25,CGGATTAC,0.166

row,Sequence,PBM E-score
1,ACGCACAA,0.0589
2,AGTCAAAG,-0.225
3,AATGAAGG,-0.104
4,ACGTGCCC,-0.00982
5,GCCGCCCA,-0.0607
6,GACTGCCA,0.144
7,AGTCTGGA,0.0431
8,AACAAACG,-0.0741
9,GCTTCCTA,0.164
10,CCTCGATA,0.218
11,CAGAGAAC,-0.0414
12,TTAGGGAA,0.0134
13,AGGCACGA,-0.154
14,ATGAAAGC,-0.00029
15,TCTCTACA,0.118
16,GCGGTCCC,-0.243
17,GCGCACAC,0.0207
18,CGCAACGC,-0.0184
19,CAAGTCAC,-0.125
20,GAGCACCC,-0.102
21,GGGGATAC,-0.265
22,ACAGTTTA,-0.0213
23,CAGATTTC,0.117
24,CCGTAATC,0.143
25,CACTTGGC,-0.185

row,Sequence,PBM E-score
1,CCTATTCA,-0.136
2,AACTCCCC,-0.167
3,TCTACTCA,-0.043
4,CCTTAGAG,-0.368
5,CCGTCGTA,-0.027
6,CCTCAGCA,-0.0312
7,GAGAGGAC,-0.133
8,AGGCGATG,-0.0126
9,CGAACTCG,0.208
10,GAACTGTC,-0.00719
11,TTATAAAA,0.191
12,ACTCGCAG,0.0863
13,AACAATGC,0.166
14,CAGAGGCC,-0.228
15,CACTGCGG,0.0398
16,TCTCCACA,-0.0481
17,GCGCACGA,0.205
18,GGATATCA,0.0725
19,GTATGGAC,0.00732
20,GAAAATCC,0.0577
21,ACGAGATA,-0.0139
22,AAGGACCC,-0.24
23,AAGACCCT,-0.156
24,GCATTATA,0.101
25,ATAAATAG,0.121

# Fetched one by one from the list above (6):
row,Sequence,PBM E-score
18,CGCAACGC,-0.0184
18,CGACTGGC,-0.0974
12,CCTCTGCG,-0.147
8,AGGCGATG,-0.0126
6,GTCAGGGA,-0.125
21,ACGAGATA,-0.0139

# Continued:

row,Sequence,PBM E-score
1,CTGCAGAC,0.0731
2,CAGAATAA,0.104
3,AGGCCTAG,-0.139
4,AACCCTAT,0.0637
5,AGTTCAAA,0.0853
6,GCTCAATA,0.0491
7,CCAGATAC,0.0244
8,GGTGCGAC,-0.177
9,CAATCTAC,-0.0979
10,CCGGCATA,-0.0316
11,CGTCTAAA,-0.136
12,GCTCGGCA,0.0523
13,CTGAGTAC,-0.06
14,GTCTATTA,-0.0296
15,CTTTAGAC,-0.141
16,AATTCCCC,0.11
17,CGTGGTTC,-0.122
18,CACCCGTG,-0.184
19,CTAGGAAG,-0.0579
20,TCCTGTCA,0.103
21,TCAGTAGA,-0.0953
22,AAGTACAT,0.0691
23,GGAATGAA,0.162
24,ACTGCCCC,-0.052
25,AAGTTCGC,-0.0383

row,Sequence,PBM E-score
1,CTGTAATA,0.143
2,ATAAAAAT,0.152
3,CCCGGGGA,-0.231
4,CTCGAGCC,0.0755
5,AAGAACGC,0.0173
6,ATTGGTTG,0.0297
7,AGATCTTC,-0.083
8,ATTGCTGA,0.223
9,GATAGAAC,0.0144
10,ATCCGGAC,0.131
11,CCGGCCAG,-0.109
12,GAATGTAC,0.0593
13,CCCCATTA,-0.211
14,ATTTACAC,-0.065
15,CGGCTAAC,0.182
16,GATTTCCC,0.118
17,ATTAGGAA,0.119
18,AACGTTAA,0.167
19,AGCGGACT,-0.253
20,ATACTAGC,0.0804
21,GATGACTA,0.172
22,GGATCAAC,0.0489
